Test results from publication PMC4906400.
Results are given in words; binding and its absence hold for the method and conditions named. For some of these results: Binding seen in cells or lysates may run through a third protein. Some binding calls cover weakened binding; strength is not graded here. Sequences can lack the tags named with a protein. Blank lines part the entries; values can stand above or below the binder they belong to.

Tests used:
[1] = target: T1, MBP-RGA (REPRESSOR OF ga1-3 fused with maltose-binding protein) (Arabidopsis) (UniProt Q9SLH3); experiment: pull-down; 2 ug MBP or MBP-RGA mixed with 2 ug His- or GST-tagged protein in 500 ul binding buffer (20 mM Tris-HCl pH 7.5, 150 mM NaCl, 0.1% Nonidet P-40), 4 °C, 2 h; captured on amylose agarose beads; immunoblots with anti-His, anti-GST, anti-MBP; both purified
T1 sequence: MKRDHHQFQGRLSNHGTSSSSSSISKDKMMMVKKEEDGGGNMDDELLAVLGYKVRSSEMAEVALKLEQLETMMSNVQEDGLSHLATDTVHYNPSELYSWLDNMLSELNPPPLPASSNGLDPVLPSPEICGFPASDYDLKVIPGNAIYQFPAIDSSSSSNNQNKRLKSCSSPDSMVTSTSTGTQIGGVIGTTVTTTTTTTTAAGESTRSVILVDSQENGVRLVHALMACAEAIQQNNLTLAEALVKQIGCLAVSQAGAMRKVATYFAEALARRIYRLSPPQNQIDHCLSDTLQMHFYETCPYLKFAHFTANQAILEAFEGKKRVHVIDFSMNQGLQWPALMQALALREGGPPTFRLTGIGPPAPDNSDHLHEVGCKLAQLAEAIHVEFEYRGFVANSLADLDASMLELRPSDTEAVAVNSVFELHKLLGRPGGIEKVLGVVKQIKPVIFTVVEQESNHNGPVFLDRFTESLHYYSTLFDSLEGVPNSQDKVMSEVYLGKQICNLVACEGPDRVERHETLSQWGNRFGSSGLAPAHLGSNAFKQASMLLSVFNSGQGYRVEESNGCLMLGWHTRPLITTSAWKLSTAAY

[2] = target: T2, YFP^N-RGA (Arabidopsis) (UniProt Q9SLH3); experiment: split reporter; BiFC: YFP^N-RGA with YFP^C-PIF plasmids, particle-mediated transformation of onion epidermal cells, YFP signal after 24 h by confocal microscopy
T2 sequence: T1 sequence

binding [1]: binds
B1: His-PIF1 (protein, UniProt Q8GZM7 1-478)
chain: MHHFVPDFDTDDDYVNNHNSSLNHLPRKSITTMGEDDDLMELLWQNGQVVVQNQRLHTKKPSSSPPKLLPSMDPQQQPSSDQNLFIQEDEMTSWLHYPLRDDDFCSDLLFSAAPTATATATVSQVTAARPPVSSTNESRPPVRNFMNFSRLRGDFNNGRGGESGPLLSKAVVRESTQVSPSATPSAAASESGLTRRTDGTDSSAVAGGGAYNRKGKAVAMTAPAIEITGTSSSVVSKSEIEPEKTNVDDRKRKEREATTTDETESRSEETKQARVSTTSTKRSRAAEVHNLSERKRRDRINERMKALQELIPRCNKSDKASMLDEAIEYMKSLQLQIQMMSMGCGMMPMMYPGMQQYMPHMAMGMGMNQPIPPPSFMPFPNMLAAQRPLPTQTHMAGSGPQYPVHASDPSRVFVPNQQYDPTSGQPQYPAGYTDPYQQFRGLHPTQPPQFQNQATSYPSSSRVSSSKESEDHGNHTTG

binding [2]: binds
B2: YFP^C-PIF1 (protein, UniProt Q8GZM7 1-478)
chain: B1 chain

binding [1]: binds
B3: GST-PIF5 (protein, UniProt Q84LH8 1-444)
chain: MEQVFADWNFEDNFHMSTNKRSIRPEDELVELLWRDGQVVLQSQARREPSVQVQTHKQETLRKPNNIFLDNQETVQKPNYAALDDQETVSWIQYPPDDVIDPFESEFSSHFFSSIDHLGGPEKPRTIEETVKHEAQAMAPPKFRSSVITVGPSHCGSNQSTNIHQATTLPVSMSDRSKNVEERLDTSSGGSSGCSYGRNNKETVSGTSVTIDRKRKHVMDADQESVSQSDIGLTSTDDQTMGNKSSQRSGSTRRSRAAEVHNLSERRRRDRINERMKALQELIPHCSRTDKASILDEAIDYLKSLQMQLQVMWMGSGMAAAAAAAASPMMFPGVQSSPYINQMAMQSQMQLSQFPVMNRSAPQNHPGLVCQNPVQLQLQAQNQILSEQLARYMGGIPQMPPAGNQMQTVQQQPADMLGFGSPAGPQSQLSAPATTDSLHMGKIG

binding [2]: binds
B4: YFP^C-PIF5 (protein, UniProt Q84LH8 1-444)
chain: B3 chain
